Measured data: PubChem BioAssay AID1259308 (NCATS, 2017)

Assay: 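Knock-downs that increase output of a recombinant reporter protein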 (primary screen)
Cell system: human HEK293 embryonic kidney cells stably expressing firefly luciferase (HEK-CMV-Luc2-Hygro)
Knock-down reagent: single siRNA against human genes, 0.8 pmol siRNA per well
Time to read-out: 72 h
Read-out: 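Reporter luminescence and viable-cell signal on separate replicate plates, given as percent of non-targeting control and median/MAD z-scores, plus per-cell luciferase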
Scale: total luciferase, z-score: higher = more reporter protein produced
Active means: 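Active when the median/MAD z-score for overall luciferase is greater than 3; a gene was taken forward for validation with new siRNAs if at least two of its three siRNAs passed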
Calls: active = raised luciferase; inactive = no rise
The whole screen tested about 59,000 reagents; below is an unselected part. About 1,510 of them (2.6%) were called active. 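Calls use total luciferase alone and ignore viability, so some active siRNAs may act by altering cell number.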 Entries without a mark were called inactive. The numbers tell different reagents against one gene apart. Further read-outs or replicates are left out here. No sequences are given here.

SLC40A1 #1 → total luciferase, z-score: -0.233
SLC40A1 #2 → total luciferase, z-score: 3.31 (active)
SLC40A1 #3 → total luciferase, z-score: 0.469
PSMA2 (proteasome 20S subunit alpha 2) #1 → total luciferase, z-score: -0.54
PSMA2 (proteasome 20S subunit alpha 2) #2 → total luciferase, z-score: -0.292
PSMA2 (proteasome 20S subunit alpha 2) #3 → total luciferase, z-score: 1.09
DOK6 (docking protein 6) #1 → total luciferase, z-score: 1.24
DOK6 (docking protein 6) #2 → total luciferase, z-score: -0.487
DOK6 (docking protein 6) #3 → total luciferase, z-score: 2.26
ELOVL2 (ELOVL fatty acid elongase 2) #1 → total luciferase, z-score: 0.468
ELOVL2 (ELOVL fatty acid elongase 2) #2 → total luciferase, z-score: 0.495
ELOVL2 (ELOVL fatty acid elongase 2) #3 → total luciferase, z-score: -0.344
MAN2B2 (mannosidase alpha class 2B member 2) #1 → total luciferase, z-score: -0.986
MAN2B2 (mannosidase alpha class 2B member 2) #2 → total luciferase, z-score: -1.81
MAN2B2 (mannosidase alpha class 2B member 2) #3 → total luciferase, z-score: 1.46
TMEM102 (transmembrane protein 102) #1 → total luciferase, z-score: -1.56
TMEM102 (transmembrane protein 102) #2 → total luciferase, z-score: 0.26
TMEM102 (transmembrane protein 102) #3 → total luciferase, z-score: -1.12
IGLL3P (immunoglobulin lambda like polypeptide 3, pseudogene) #1 → total luciferase, z-score: 2.24
IGLL3P (immunoglobulin lambda like polypeptide 3, pseudogene) #2 → total luciferase, z-score: -0.681
IGLL3P (immunoglobulin lambda like polypeptide 3, pseudogene) #3 → total luciferase, z-score: 1.47
ABHD12 (abhydrolase domain containing 12, lysophospholipase) #1 → total luciferase, z-score: -0.415
ABHD12 (abhydrolase domain containing 12, lysophospholipase) #2 → total luciferase, z-score: 1.09
ABHD12 (abhydrolase domain containing 12, lysophospholipase) #3 → total luciferase, z-score: -1.26
SLC22A2 #1 → total luciferase, z-score: -0.221
SLC22A2 #2 → total luciferase, z-score: 0.115
SLC22A2 #3 → total luciferase, z-score: -0.809
WNT9B (Wnt family member 9B) #1 → total luciferase, z-score: -2.76
WNT9B (Wnt family member 9B) #2 → total luciferase, z-score: -0.555
WNT9B (Wnt family member 9B) #3 → total luciferase, z-score: -0.117
LCMT2 (leucine carboxyl methyltransferase 2) #1 → total luciferase, z-score: 0.0674
LCMT2 (leucine carboxyl methyltransferase 2) #2 → total luciferase, z-score: -1.08
LCMT2 (leucine carboxyl methyltransferase 2) #3 → total luciferase, z-score: -0.499

A few values from above.
ELOVL2 (ELOVL fatty acid elongase 2) #3, total luciferase, z-score: -0.344
For “total luciferase, z-score”, TMEM102 (transmembrane protein 102) #2 shows 0.26
Result for MAN2B2 (mannosidase alpha class 2B member 2) #2 in “total luciferase, z-score”: -1.81
Value of WNT9B (Wnt family member 9B) #2 in “total luciferase, z-score”: -0.555
For “total luciferase, z-score”, SLC40A1 #2 shows 3.31 (active)
